Experimental data published in article PMC5897330.
No constants are given. Whether binding was seen depends on the method and setting. In cells and extracts the contact can be indirect. Some results given as binding are weak or reduced against the parent protein; the word gives no strength.

Protein sequences, listed by entry. Tags and fused reporters are not part of them.
UniProt P04792: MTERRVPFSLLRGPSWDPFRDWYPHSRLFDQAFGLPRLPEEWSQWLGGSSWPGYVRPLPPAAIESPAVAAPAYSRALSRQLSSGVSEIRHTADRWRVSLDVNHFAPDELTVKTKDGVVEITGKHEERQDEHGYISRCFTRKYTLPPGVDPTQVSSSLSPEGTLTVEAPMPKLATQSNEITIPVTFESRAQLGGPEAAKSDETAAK
UniProt P42229: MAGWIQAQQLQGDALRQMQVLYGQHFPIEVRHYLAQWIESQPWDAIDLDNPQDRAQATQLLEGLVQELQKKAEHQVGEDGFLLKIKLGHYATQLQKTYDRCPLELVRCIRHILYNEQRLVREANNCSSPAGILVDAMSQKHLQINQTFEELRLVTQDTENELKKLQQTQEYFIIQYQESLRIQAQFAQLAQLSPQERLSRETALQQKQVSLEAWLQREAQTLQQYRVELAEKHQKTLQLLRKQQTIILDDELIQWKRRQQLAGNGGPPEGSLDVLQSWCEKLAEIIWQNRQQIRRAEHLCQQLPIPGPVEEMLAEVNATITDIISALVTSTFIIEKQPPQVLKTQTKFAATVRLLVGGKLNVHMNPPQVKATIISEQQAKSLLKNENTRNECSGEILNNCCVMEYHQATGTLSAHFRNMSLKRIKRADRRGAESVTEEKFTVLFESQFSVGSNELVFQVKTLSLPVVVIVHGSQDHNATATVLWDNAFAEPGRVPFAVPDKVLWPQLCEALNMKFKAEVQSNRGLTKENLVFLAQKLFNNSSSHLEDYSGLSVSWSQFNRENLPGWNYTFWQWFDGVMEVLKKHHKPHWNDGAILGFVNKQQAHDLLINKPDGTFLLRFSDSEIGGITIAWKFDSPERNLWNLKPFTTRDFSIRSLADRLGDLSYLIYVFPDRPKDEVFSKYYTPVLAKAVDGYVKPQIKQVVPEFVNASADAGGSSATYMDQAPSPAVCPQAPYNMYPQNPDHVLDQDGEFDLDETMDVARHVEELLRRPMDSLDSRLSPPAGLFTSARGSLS

Molecular target: HA-tagged HSP27 (UniProt P04792)
Assay: co-IP; HEK293T transfected with HA-tagged HSP27 and Myc-tagged STAT5a or JAK2V617F, 24 h; IP 3 h with anti-HA, anti-Myc or anti-STAT5 or mouse IgG on Protein G beads; blots for STAT5, JAK2, HSP27

binding: binds
Substance: Myc-tagged STAT5a (from UniProt P42229 1-794)
